According to US20200340060A1, “COMPOSITIONS AND METHODS FOR IDENTIFYING AND TREATING LIVER DISEASES AND MONITORING TREATMENT OUTCOMES” (Gilead Sciences, Inc., priority 2017, published 2020):

B1: Dtk (protein, UniProt Q06418 41-890, looked up)
Tyrosine-protein kinase …: AGLKLMGAPVKLTVSQGQPVKLNCSVEGMEEPDIQWVKDGAVVQNLDQLYIPVSEQHWIGFLSLKSVERSDAGRYWCQVEDGGETEISQPVWLTVEGVPFFTVEPKDLAVPPNAPFQLSCEAVGPPEPVTIVWWRGTTKIGGPAPSPSVLNVTGVTQSTMFSCEAHNLKGLASSRTATVHLQALPAAPFNITVTKLSSSNASVAWMPGADGRALLQSCTVQVTQAPGGWEVLAVVVPVPPFTCLLRDLVPATNYSLRVRCANALGPSPYADWVPFQTKGLAPASAPQNLHAIRTDSGLILEWEEVIPEAPLEGPLGPYKLSWVQDNGTQDELTVEGTRANLTGWDPQKDLIVRVCVSNAVGCGPWSQPLVVSSHDRAGQQGPPHSRTSWVPVVLGVLTALVTAAALALILLRKRRKETRFGQAFDSVMARGEPAVHFRAARSFNRERPERIEATLDSLGISDELKEKLEDVLIPEQQFTLGRMLGKGEFGSVREAQLKQEDGSFVKVAVKMLKADIIASSDIEEFLREAACMKEFDHPHVAKLVGVSLRSRAKGRLPIPMVILPFMKHGDLHAFLLASRIGENPFNLPLQTLIRFMVDIACGMEYLSSRNFIHRDLAARNCMLAEDMTVCVADFGLSRKIYSGDYYRQGCASKLPVKWLALESLADNLYTVQSDVWAFGVTMWEIMTRGQTPYAGIENAEIYNYLIGGNRLKQPPECMEDVYDLMYQCWSADPKQRPSFTCLRMELENILGQLSVLSASQDPLYINIERAEEPTAGGSLELPGRDQPYSGAGDGSGMGAVGGTPSDCRYILTPGGLAEQPGQAEHQPESPLNETQRLLLLQQGLLPHSSC
B2: CD70 (protein, UniProt P32970 1-193, looked up)
CD70 antigen: MPEEGSGCSVRRRPYGCVLRAALVPLVAGLVICLVVCIQRFAQAQQQLPLESLGWDVAELQLNHTGPQQDPRLYWQGGPALGRSFLHGPELDKGQLRIHRDGIYMVHIQVTLAICSSTTASRHHPTTLAVGICSPASRSISLLRLSFHQGCTIASQRLTPLARGDTLCTNLTGTLLPSRNTDETFFGVQWVRP
B3: INGR2 (protein, UniProt P38484 22-337, looked up)
Interferon gamma receptor 2: APPDPLSQLPAPQHPKIRLYNAEQVLSWEPVALSNSTRPVVYQVQFKYTDSKWFTADIMSIGVNCTQITATECDFTAASPSAGFPMDFNVTLRLRAELGALHSAWVTMPWFQHYRNVTVGPPENIEVTPGEGSLIIRFSSPFDIADTSTAFFCYYVHYWEKGGIQQVKGPFRSNSISLDNLKPSRVYCLQVQAQLLWNKSNIFRVGHLSNISCYETMADASTELQQVILISVGTFSLLSVLAGACFFLVLKYRGLIKYWFHTPPSIPLQIEEYLKDPTQPILEALDKDSSPKDDVWDSVSIISFPEKEQEDVLQTL
B4: KI3L2 (protein, UniProt P43630 22-455, looked up)
Killer cell …: LMGGQDKPFLSARPSTVVPRGGHVALQCHYRRGFNNFMLYKEDRSHVPIFHGRIFQESFIMGPVTPAHAGTYRCRGSRPHSLTGWSAPSNPLVIMVTGNHRKPSLLAHPGPLLKSGETVILQCWSDVMFEHFFLHREGISEDPSRLVGQIHDGVSKANFSIGPLMPVLAGTYRCYGSVPHSPYQLSAPSDPLDIVITGLYEKPSLSAQPGPTVQAGENVTLSCSSWSSYDIYHLSREGEAHERRLRAVPKVNRTFQADFPLGPATHGGTYRCFGSFRALPCVWSNSSDPLLVSVTGNPSSSWPSPTEPSSKSGICRHLHVLIGTSVVIFLFILLLFFLLYRWCSNKKNAAVMDQEPAGDRTVNRQDSDEQDPQEVTYAQLDHCVFIQRKISRPSQRPKTPLTDTSVYTELPNAEPRSKVVSCPRAPQSGLEGVF
B5: ATS15 (protein, UniProt Q8TE58 213-950, looked up)
A disintegrin and …: FVSIPRYVETLVVADESMVKFHGADLEHYLLTLLATAARLYRHPSILNPINIVVVKVLLLRDRDSGPKVTGNAALTLRNFCAWQKKLNKVSDKHPEYWDTAILFTRQDLCGATTCDTLGMADVGTMCDPKRSCSVIEDDGLPSAFTTAHELGHVFNMPHDNVKVCEEVFGKLRANHMMSPTLIQIDRANPWSACSAAIITDFLDSGHGDCLLDQPSKPISLPEDLPGASYTLSQQCELAFGVGSKPCPYMQYCTKLWCTGKAKGQMVCQTRHFPWADGTSCGEGKLCLKGACVERHNLNKHRVDGSWAKWDPYGPCSRTCGGGVQLARRQCTNPTPANGGKYCEGVRVKYRSCNLEPCPSSASGKSFREEQCEAFNGYNHSTNRLTLAVAWVPKYSGVSPRDKCKLICRANGTGYFYVLAPKVVDGTLCSPDSTSVCVQGKCIKAGCDGNLGSKKRFDKCGVCGGDNKSCKKVTGLFTKPMHGYNFVVAIPAGASSIDIRQRGYKGLIGDDNYLALKNSQGKYLLNGHFVVSAVERDLVVKGSLLRYSGTGTAVESLQASRPILEPLTVEVLSVGKMTPPRVRYSFYLPKEPREDKSSHPKDPRGPSVLHNSVLSLSNQVEQPDDRPPARWVAGSWGPCSASCGSGLQKRAVDCRGSAGQRTVPACDAAHRPVETQACGEPCPTWELSAWSPCSKSCGRGFQRRSLKCVGHGGRLLARDQCNLHRKPQELDFCVLRPC
B6: MP2K3 (protein, UniProt P46734 1-347, looked up)
Dual specificity …: MESPASSQPASMPQSKGKSKRKKDLRISCMSKPPAPNPTPPRNLDSRTFITIGDRNFEVEADDLVTISELGRGAYGVVEKVRHAQSGTIMAVKRIRATVNSQEQKRLLMDLDINMRTVDCFYTVTFYGALFREGDVWICMELMDTSLDKFYRKVLDKNMTIPEDILGEIAVSIVRALEHLHSKLSVIHRDVKPSNVLINKEGHVKMCDFGISGYLVDSVAKTMDAGCKPYMAPERINPELNQKGYNVKSDVWSLGITMIEMAILRFPYESWGTPFQQLKQVVEEPSPQLPADRFSPEFVDFTAQCLRKNPAERMSYLELMEHPFFTLHKTKKTDIAAFVKEILGEDS
B7: CPNE1 (protein, UniProt Q99829 1-537, looked up)
Copine-1: MAHCVTLVQLSISCDHLIDKDIGSKSDPLCVLLQDVGGGSWAELGRTERVRNCSSPEFSKTLQLEYRFETVQKLRFGIYDIDNKTPELRDDDFLGGAECSLGQIVSSQVLTLPLMLKPGKPAGRGTITVSAQELKDNRVVTMEVEARNLDKKDFLGKSDPFLEFFRQGDGKWHLVYRSEVIKNNLNPTWKRFSVPVQHFCGGNPSTPIQVQCSDYDSDGSHDLIGTFHTSLAQLQAVPAEFECIHPEKQQKKKSYKNSGTIRVKICRVETEYSFLDYVMGGCQINFTVGVDFTGSNGDPSSPDSLHYLSPTGVNEYLMALWSVGSVVQDYDSDKLFPAFGFGAQVPPDWQVSHEFALNFNPSNPYCAGIQGIVDAYRQALPQVRLYGPTNFAPIINHVARFAAQAAHQGTASQYFMLLLLTDGAVTDVEATREAVVRASNLPMSVIIVGVGGADFEAMEQLDADGGPLHTRSGQAAARDIVQFVPYRRFQNAPREALAQTVLAEVPTQLVSYFRAQGWAPLKPLPPSAKDPAQAPQA
B8: PCI (protein, UniProt P05154 26-406, looked up)
Plasma serine protease …: EMKKRVEDLHVGATVAPSSRRDFTFDLYRALASAAPSQSIFFSPVSISMSLAMLSLGAGSSTKMQILEGLGLNLQKSSEKELHRGFQQLLQELNQPRDGFQLSLGNALFTDLVVDLQDTFVSAMKTLYLADTFPTNFRDSAGAMKQINDYVAKQTKGKIVDLLKNLDSNAVVIMVNYIFFKAKWETSFNHKGTQEQDFYVTSETVVRVPMMSREDQYHYLLDRNLSCRVVGVPYQGNATALFILPSEGKMQQVENGLSEKTLRKWLKMFKKRQLELYLPKFSIEGSYQLEKVLPSLGISNVFTSHADLSGISNHSNIQVSEMVHKAVVEVDESGTRAAAATGTIFTFRSARLNSQRLVFNRPFLMFIVDNNILFLGKVNRP
B9: LY9 (protein, UniProt Q9HBG7 48-655, looked up)
T-lymphocyte surface antigen …: KDSAPTVVSGILGGSVTLPLNISVDTEIENVIWIGPKNALAFARPKENVTIMVKSYLGRLDITKWSYSLCISNLTLNDAGSYKAQINQRNFEVTTEEEFTLFVYEQLQEPQVTMKSVKVSENFSCNITLMCSVKGAEKSVLYSWTPREPHASESNGGSILTVSRTPCDPDLPYICTAQNPVSQRSSLPVHVGQFCTDPGASRGGTTGETVVGVLGEPVTLPLALPACRDTEKVVWLFNTSIISKEREEAATADPLIKSRDPYKNRVWVSSQDCSLKISQLKIEDAGPYHAYVCSEASSVTSMTHVTLLIYRRLRKPKITWSLRHSEDGICRISLTCSVEDGGNTVMYTWTPLQKEAVVSQGESHLNVSWRSSENHPNLTCTASNPVSRSSHQFLSENICSGPERNTKLWIGLFLMVCLLCVGIFSWCIWKRKGRCSVPAFCSSQAEAPADTPEPTAGHTLYSVLSQGYEKLDTPLRPARQQPTPTSDSSSDSNLTTEEDEDRPEVHKPISGRYEVFDQVTQEGAGHDPAPEGQADYDPVTPYVTEVESVVGENTMYAQVFNLQGKTPVSQKEESSATIYCSIRKPQVVPPPQQNDLEIPESPTYENFT
B10: 17-beta-HSD 1 (protein, UniProt P14061 2-328, looked up)
17-beta-hydroxysteroid …: ARTVVLITGCSSGIGLHLAVRLASDPSQSFKVYATLRDLKTQGRLWEAARALACPPGSLETLQLDVRDSKSVAAARERVTEGRVDVLVCNAGLGLLGPLEALGEDAVASVLDVNVVGTVRMLQAFLPDMKRRGSGRVLVTGSVGGLMGLPFNDVYCASKFALEGLCESLAVLLLPFGVHLSLIECGPVHTAFMEKVLGSPEEVLDRTDIHTFHRFYQYLAHSKQVFREAAQNPEEVAEVFLTALRAPKPTLRYFTTERFLPLLRMRLDDPSGSNYVTAMHREVFGDVPAKAEAGAEAGGGAGPGAEDEAGRGAVGDPELGDPPAAPQ
B11: MK13 (protein, UniProt O15264 1-365, looked up)
Mitogen-activated protein …: MSLIRKKGFYKQDVNKTAWELPKTYVSPTHVGSGAYGSVCSAIDKRSGEKVAIKKLSRPFQSEIFAKRAYRELLLLKHMQHENVIGLLDVFTPASSLRNFYDFYLVMPFMQTDLQKIMGMEFSEEKIQYLVYQMLKGLKYIHSAGVVHRDLKPGNLAVNEDCELKILDFGLARHADAEMTGYVVTRWYRAPEVILSWMHYNQTVDIWSVGCIMAEMLTGKTLFKGKDYLDQLTQILKVTGVPGTEFVQKLNDKAAKSYIQSLPQTPRKDFTQLFPRASPQAADLLEKMLELDVDKRLTAAQALTHPFFEPFRDPEEETEAQQPFDDSLEHEKLTVDEWKQHIYKEIVNFSPIARKDSRRRSGMKL

Assay: SOMAscan serum proteomics in NASH subjects treated with selonsertib/simtuzumab, baseline and week 24
Parameters: species or system human
Conditions: serum protein marker level; CRN fibrosis stage improvers; week 24 vs baseline

With B1 as the molecule, how does the “Median percent CHG at W24 in improver” value read?
The value was −1.06%.

With B2 as the molecule, how does the “Median percent CHG at W24 in improver” value read?
Its value is 3.16%.

Which “Median percent CHG at W24 in improver” value does the source give for B3 here?
The value was 2.76%.

With B4 as the molecule, how does the “Median percent CHG at W24 in improver” value read?
Its value is 1.92%.

For B5, which “Median percent CHG at W24 in improver” value is on record?
The value was 4.2%.

With B6 as the molecule, how does the “Median percent CHG at W24 in improver” value read?
The value was −0.97%.

With B7 as the molecule, how does the “Median percent CHG at W24 in improver” value read?
Its value is 2.87%.

For B8, which “Median percent CHG at W24 in improver” value is on record?
Its value is 1.79%.

For B9, which “Median percent CHG at W24 in improver” value is on record?
The value was −6.33%.

With B10 as the molecule, how does the “Median percent CHG at W24 in improver” value read?
Its value is 2.16%.

For B11, which “Median percent CHG at W24 in improver” value is on record?
Its value is 0.54%.

Same assay, conditions: serum protein marker level; CRN fibrosis stage non-improvers; week 24 vs baseline

For B1, which “Median percent CHG at W24 in Non-improver” value is on record?
The value was 2.32%.

For B2, which “Median percent CHG at W24 in Non-improver” value is on record?
Its value is −1.88%.

Which “Median percent CHG at W24 in Non-improver” value does the source give for B3 here?
The value was −1%.

With B4 as the molecule, how does the “Median percent CHG at W24 in Non-improver” value read?
The value was −1.21%.

With B5 as the molecule, how does the “Median percent CHG at W24 in Non-improver” value read?
The value was −0.15%.

Which “Median percent CHG at W24 in Non-improver” value does the source give for B6 here?
Its value is −3.46%.

For B7, which “Median percent CHG at W24 in Non-improver” value is on record?
The value was −4.36%.

For B8, which “Median percent CHG at W24 in Non-improver” value is on record?
The value was 12.19%.

For B9, which “Median percent CHG at W24 in Non-improver” value is on record?
The value was 3.6%.

Which “Median percent CHG at W24 in Non-improver” value does the source give for B10 here?
The value was −4.14%.

With B11 as the molecule, how does the “Median percent CHG at W24 in Non-improver” value read?
Its value is −4.33%.
